The values below come from PubChem BioAssay AID1347423 (Functional Genomics Laboratory (NCATS/FGL), 2020).

Screen size: about 52,000 sequences; about 210 (0.4%) were called active.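 Rule for the calls: active = gene whose silencing raises cell survival under the drug, median off-target-corrected z-score across its silencing RNAs 2 or more; inactive = the rest.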 Some of the results follow.

The nature of the test: Resistance to Poly (ADP-Ribose) Polymerase inhibitor: Gene Identification via Genome-wide siRNA Screen. As to conditions: mouse BRCA2 R2336H ES cells, olaparib, CellTiter-Glo viability; active compounds read high. The essentials: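 Genome-wide siRNA screen (3 siRNAs/gene, 20 nM) in mouse ES cells carrying hypomorphic BRCA2 R2336H; olaparib 500 nM added 48 h post-transfection, CellTiter-Glo viability 72 h later. Normalized to plate-median negative control; MAD z-scores, gene median, seed-adjusted.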
Background: In ATP-based viability assays light output follows the ATP content of the culture.
As to “CGAAUCGAGUGAAGAAAAATT against 4930544G11Rik”, the z-score is inactive: 0.034.

For the sequence GGCAAAGCAUAUUUUUCUATT against Crsp6, the z-score was inactive: 0.615.

Regarding GGAACAAAGUAGGAGCUUGTT against Zfp318, the z-score is inactive: 0.218.

With “CCGGAAAGUUCGACAUUCCTT against 2310061B02Rik”, the z-score is inactive: -0.824.

Consider GCACAGCACUGCCUAAUGUTT against V2r16, for which the z-score was inactive: -1.42.

In the case of “GCUGAACAAUUUUCAACAATT against 2610207F23Rik”, the z-score is inactive: 0.956.

As to GGGUUUAAAGGUUAUGGAGTT against Adam17, the z-score was inactive: 0.166.

As for “GCCAGUGGGAUGUCAAAAATT against 5730454B08Rik”, the z-score is inactive: -0.307.

Regarding GGUAAAUUACUCUGAUCAATT against Gpr61, the z-score was inactive: 0.223.

Take GGGAAACUCUGUCCAAUUGTT against Lgtn: the z-score is inactive: -0.687.

Consider CGGUUCUGGUGCAUUCACATT against Olfr242, for which the z-score is inactive: -1.75.

In the case of GCGUAACGCAGCAGCUAAGTT against Tarbp2, the z-score is inactive: 0.00254.

Take GCUGGUAUUCAGCACCUUUTT against Cyp17a1: the z-score is inactive: 0.366.

With GGUACCAUCCGGAAUACAATT against Zdhhc19, the z-score is inactive: -2.49.

On to GGGUCUCACUCUCUUCCGATT against Slc23a1, for which the z-score is inactive: 0.934.

As for GGUUUUAAAGGCCAUAUUGTT against Sc4mol, the z-score is inactive: -0.234.

Regarding “GGUCAAUAUUGGCUUAUGUTT against 0610027O18Rik”, the z-score is inactive: -1.06.

Take GGGAAGAAAAAAAAAGGGUTT against Fkrp: the z-score was inactive: 0.615.

GGAUGAAAAAUCAGUACUUTT against Aadac: the z-score is inactive: -1.22.

GGAGGGACACAGAGAUUACTT against Auh: the z-score was inactive: 0.259.

For GGUUCAUCAACACCAGCAUTT against Fgfrl1, the z-score is inactive: -0.907.

Regarding GGAAAGAAAAAUCAGAGAATT against Adprhl1, the z-score was inactive: -0.0852.

For GGGCAUGAAAUGUUCCUGUTT against Prkcc, the z-score is inactive: -0.872.

In the case of GCCUGUGCCAGAUUUUCUCTT against Rgl2, the z-score is inactive: 1.97.

Turning to “GGAAUGGUUUUUGAAGAGGTT against 4930539I12Rik”, the z-score was inactive: 0.227.

Regarding CCUGGAAAAUAAAAGGUGGTT against Olfr1141, the z-score was inactive: 0.586.

Take GGACACUGUACAGAAGCUGTT against Asb18: the z-score was inactive: 2.15.

In the case of “CGAGAAAAAGACCAUAGUUTT against 1110056N09Rik”, the z-score is inactive: -0.147.

For the sequence CCAUUCUGUGCCUUAGUUUTT against Loxhd1, the z-score is inactive: -0.669.

For GGCGAGGGUUAAAAAUUUATT against Sfrs1, the z-score is inactive: -1.02.

As to GGGAAAAUAUCAAGUGUAGTT against BC027828, the z-score was inactive: -0.161.

As to “GGAAAUGAACAGUAAACCATT against 2010204I15Rik”, the z-score is inactive: 0.485.

Regarding “GGUGUUUCAUUAACAGGAATT against 5430416O09Rik”, the z-score is inactive: 0.106.

For the sequence GGCACCUACAUCCUUAUUGTT against Ptprn, the z-score was inactive: 0.11.

For GGACUUUGAGAAAGCAUUCTT against Pck1, the z-score is inactive: -0.503.

Take GAUGGUACUCUUCAUAGUATT against Olfr1362: the z-score was inactive: 0.64.

Turning to GGAGGAAAUACAUGAUAAATT against Strap, the z-score is inactive: 0.249.

On to GCAGUAACUCCGGUAGUAGTT against Daxx, for which the z-score is inactive: 1.31.

Consider GCUGCUGAUUCAAUUCUAUTT against Eif2c4, for which the z-score is inactive: 0.00509.

For the sequence “GGACAUUGGUCCAAAGAGUTT against 4921506I22Rik”, the z-score is inactive: -0.752.

As for GGGAGAACAGUGUUCAGAGTT against Mist1, the z-score was inactive: 0.501.

As to GCAAUUAUAUUUGUUCGGGTT against AW456874, the z-score is inactive: 0.874.

Consider GGAAGUAGAGCUUCAAAUGTT against Cdkl2, for which the z-score is inactive: 0.468.

GGCAAUGACCUUGUAAAGATT against Tomm34: the z-score was inactive: 0.00616.

As for GAUUGGAUUUAAAGCCUGCTT against Olfr667, the z-score was inactive: -0.649.

As to CCGUAUUCCAUACAAGGACTT against Ilk, the z-score is inactive: 0.86.

Regarding GCACUAUGGUAUUGAAAUUTT against Armc5, the z-score is inactive: -1.01.

As for GGAUAGGUUUCUGUAUUUATT against Znrf1, the z-score was inactive: 0.0701.

Regarding GGCUUAUUGUAGAAAAUCUTT against Sfrs6, the z-score is inactive: -0.678.

With GGAUGAAACACAACUGCACTT against Ctsz, the z-score was inactive: 1.45.

For GGCGUGAAGAAGUUUGAUGTT against Pklr, the z-score is inactive: -0.195.

For GCCUCGAUUGGCCACAUUUTT against Atp5l, the z-score was inactive: -2.55.

As to CCUCAAACCAUCAACAACCTT against Six3, the z-score was inactive: -0.853.

On to “GGACAGUGAACUUUUGACCTT against C030019F02Rik”, for which the z-score was inactive: 0.758.

For the sequence GGGAUUCCAGACAUGGGAATT against Dibd1, the z-score is inactive: 0.152.

In the case of CCUACAGUGACCUUUCCCGTT against Apcs, the z-score is inactive: -0.238.

As for GGAACACAAUAGUACAUACTT against Slc2a4, the z-score is inactive: 0.313.

Take GGGUGGUGUUUUAACCCUUTT against Mep1b: the z-score is inactive: 1.34.

For GGAGAUCUACUUUCUCAACTT against Crtac1, the z-score was inactive: 0.137.

For the sequence GGAGCUUGUGAACACCUUCTT against Nudc, the z-score is inactive: -2.46.

GGCAAUCUGGAACAACAUATT against Tmem16f: the z-score was inactive: -0.837.

On to CGGAGCCAAAUACGAAGGGTT against Jph3, for which the z-score was inactive: 0.0354.

In the case of GUGACAAGAGAAGUCAAAATT against Ear1, the z-score was inactive: 1.63.

Consider CGUGUGGUAACUUGAAGGGTT against LOC434484, for which the z-score is inactive: -0.774.

With GCACUACACCUCCAGUUCGTT against Gne, the z-score is inactive: -0.224.

As for GCCAGAAGAGCAGAAAGUUTT against Enpp5, the z-score was inactive: 0.271.

Regarding GGAAGAGAGCAGAAAGAAGTT against Trim35, the z-score was inactive: -0.536.

In the case of GGGAUAAGUACUCUGCUAATT against Sorcs3, the z-score is inactive: -0.318.

In the case of “GGGUAGACCUCAAUGAUAUTT against D930047P17Rik”, the z-score was inactive: -0.084.

On to “GGAAGUUGUGUGACAGAAATT against 9230106L18Rik”, for which the z-score was inactive: -0.79.

Regarding GGAUGGGUCAAUGUUCUACTT against V1rb6, the z-score is inactive: -0.923.

Consider GGGCUGUUUGGAAUAAUAATT against Gmppb, for which the z-score is inactive: -1.59.

Take GCAUGUUGUCGACACAUGCTT against Bcl6: the z-score is inactive: 0.541.

With GGACAUACAAAUCUUCAUUTT against Mta2, the z-score was inactive: -0.311.

As for GGUACACGUCUUGUCUCUGTT against Spry2, the z-score is inactive: -1.13.

For the sequence GGUCUGCCUUUGAAAAAAATT against Bckdha, the z-score is inactive: -0.0859.

For GGGAAGAAGACUGACAAGCTT against Lars, the z-score is inactive: 0.068.

Take GCAGGUGUAUACUAUGUUATT against G6pc: the z-score is inactive: -1.08.

With CCGCUACAGGUUUACCAAGTT against LOC434768, the z-score was inactive: -0.0796.

For the sequence GCAGAAAUACGAAAUCAACTT against Tnnt2, the z-score is inactive: -0.702.

For the sequence GGAACCAGUUUAAAUGAUUTT against Axot, the z-score was inactive: -0.0255.

Consider “GCACAAGUUCAGAAAUGAATT against 1700011J10Rik”, for which the z-score was inactive: 0.797.

GCACUUUUUUGCUGCUGAUTT against Olfr1263: the z-score is inactive: 0.985.

Turning to GGUCUAGAGUUACCAUUCATT against Aqp9, the z-score is inactive: -2.28.

GCCUACGUUACCUUGAUCCTT against AW210596: the z-score was inactive: -0.756.

As for GGUAACAUACUAAAAGAAGTT against V2r16, the z-score was inactive: -1.42.

Turning to CGGGCUGGGAAGUUGUUAGTT against Bcl10, the z-score is inactive: 0.984.

Take “CCGUGACCUAUAACGAAGATT against 1110008B24Rik”: the z-score was inactive: 0.678.

On to “GCAUAGGCCUUAGUUCUGCTT against D17Ertd441e”, for which the z-score was inactive: -2.74.

As to “CCUAGUUGAAAAUUGGGAATT against 0610025O11Rik”, the z-score is inactive: -0.794.

GACUUCAAACAAAUGGUGCTT against Sprrl9: the z-score is inactive: 0.228.

Take “GCCUCAGUAUUGGUGCUCUTT against A930021C24Rik”: the z-score is inactive: -0.324.

As for CGCAGUGGACUCAUCUUGATT against Sestd1, the z-score was inactive: 0.735.

As for GGAGGUGGUAUGUUUUAUATT against AI461788, the z-score was inactive: -0.249.

As to “GGACUUAAUCCCAUGGAGCTT against C730027P07Rik”, the z-score was inactive: 0.336.

For GGACAAGGAAUACUACGAGTT against Ltbr, the z-score is inactive: 1.78.

Consider “GCAAAGGAAUCCUUUUCACTT against 5930406N14Rik”, for which the z-score is inactive: 0.222.

Turning to “CGUUUGCCUGGUACCUUACTT against 1110028A07Rik”, the z-score is inactive: -1.36.

With CGUUGGUUAUUAGUUGAUUTT against Luc7l2, the z-score is inactive: -0.0763.

Turning to GGAGCAUUUUGGAUAAGAUTT against Nup88, the z-score was inactive: -1.8.

Turning to GGACAUUUAAGUGACUUGUTT against Dtnbp1, the z-score was inactive: 1.5.

Consider CGAAAUCAGAACCUGGGAATT against AW742319, for which the z-score was inactive: -1.44.

Take GGAUUUUCGAUUCUCUUACTT against Glg1: the z-score was inactive: 0.174.

In the case of CCGUCCGAUGAAAAACAGGTT against Prm1, the z-score was inactive: 0.593.
